# Measurements from the supplement of paper PMC12819154, “High-throughput peptide-centric local stability assay extends protein–ligand identification to membrane proteins, tissues and bacteria” (Nature Structural & Molecular Biology, 2025).
# Sequences of proteins named here, by UniProt entry; tags and fusion partners are left off. A change or cut given only in a name is not applied to a line headed by its entry.
# UniProt Q8VD66: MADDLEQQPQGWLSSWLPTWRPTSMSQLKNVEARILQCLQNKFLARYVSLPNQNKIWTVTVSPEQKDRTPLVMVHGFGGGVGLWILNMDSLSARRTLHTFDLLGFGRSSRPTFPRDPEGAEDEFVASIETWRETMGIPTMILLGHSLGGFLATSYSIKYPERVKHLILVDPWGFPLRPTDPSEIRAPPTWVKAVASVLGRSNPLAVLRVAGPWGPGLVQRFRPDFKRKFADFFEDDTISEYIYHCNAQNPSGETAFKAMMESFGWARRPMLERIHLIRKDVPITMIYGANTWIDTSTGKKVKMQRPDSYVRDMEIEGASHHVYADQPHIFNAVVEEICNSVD
# UniProt Q8R317, whole entry: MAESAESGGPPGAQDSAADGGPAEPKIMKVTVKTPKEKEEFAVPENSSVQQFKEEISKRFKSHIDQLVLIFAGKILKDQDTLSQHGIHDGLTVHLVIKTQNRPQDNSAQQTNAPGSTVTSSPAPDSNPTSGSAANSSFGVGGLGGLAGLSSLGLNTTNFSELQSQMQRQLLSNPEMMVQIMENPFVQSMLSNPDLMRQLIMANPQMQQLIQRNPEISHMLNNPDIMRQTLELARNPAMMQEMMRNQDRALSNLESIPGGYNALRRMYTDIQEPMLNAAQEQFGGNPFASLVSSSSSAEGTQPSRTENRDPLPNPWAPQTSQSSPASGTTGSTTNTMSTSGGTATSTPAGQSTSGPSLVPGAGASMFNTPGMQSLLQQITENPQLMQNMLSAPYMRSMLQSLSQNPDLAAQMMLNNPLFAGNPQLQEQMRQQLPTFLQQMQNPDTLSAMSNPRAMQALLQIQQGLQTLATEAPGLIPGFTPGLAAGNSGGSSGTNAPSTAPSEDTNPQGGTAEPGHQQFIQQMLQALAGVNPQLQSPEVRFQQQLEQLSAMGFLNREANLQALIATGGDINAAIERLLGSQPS
# UniProt Q8VD58: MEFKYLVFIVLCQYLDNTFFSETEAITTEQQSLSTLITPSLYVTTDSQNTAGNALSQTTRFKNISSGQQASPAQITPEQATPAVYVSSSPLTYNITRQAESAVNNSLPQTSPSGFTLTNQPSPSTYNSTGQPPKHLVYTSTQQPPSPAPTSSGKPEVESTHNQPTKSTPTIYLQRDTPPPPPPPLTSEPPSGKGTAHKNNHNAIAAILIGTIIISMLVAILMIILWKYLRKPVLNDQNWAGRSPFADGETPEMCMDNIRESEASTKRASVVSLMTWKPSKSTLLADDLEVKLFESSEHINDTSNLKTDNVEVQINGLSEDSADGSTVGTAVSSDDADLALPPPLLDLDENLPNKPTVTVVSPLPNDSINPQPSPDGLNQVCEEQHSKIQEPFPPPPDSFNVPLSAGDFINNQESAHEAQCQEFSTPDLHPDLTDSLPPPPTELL
# UniProt Q8VCG9: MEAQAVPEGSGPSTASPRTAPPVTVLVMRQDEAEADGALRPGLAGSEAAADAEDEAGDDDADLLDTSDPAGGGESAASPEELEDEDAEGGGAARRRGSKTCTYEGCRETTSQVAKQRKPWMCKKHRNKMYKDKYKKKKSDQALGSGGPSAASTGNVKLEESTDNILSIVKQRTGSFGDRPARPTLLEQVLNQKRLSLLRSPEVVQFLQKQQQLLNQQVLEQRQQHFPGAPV
# UniProt Q8VE95: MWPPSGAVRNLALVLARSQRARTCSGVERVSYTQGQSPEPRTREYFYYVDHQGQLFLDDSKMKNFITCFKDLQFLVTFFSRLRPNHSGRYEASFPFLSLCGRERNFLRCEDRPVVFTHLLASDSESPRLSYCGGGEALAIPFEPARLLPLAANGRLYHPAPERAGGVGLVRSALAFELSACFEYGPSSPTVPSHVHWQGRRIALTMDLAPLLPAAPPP
# UniProt Q8VC10: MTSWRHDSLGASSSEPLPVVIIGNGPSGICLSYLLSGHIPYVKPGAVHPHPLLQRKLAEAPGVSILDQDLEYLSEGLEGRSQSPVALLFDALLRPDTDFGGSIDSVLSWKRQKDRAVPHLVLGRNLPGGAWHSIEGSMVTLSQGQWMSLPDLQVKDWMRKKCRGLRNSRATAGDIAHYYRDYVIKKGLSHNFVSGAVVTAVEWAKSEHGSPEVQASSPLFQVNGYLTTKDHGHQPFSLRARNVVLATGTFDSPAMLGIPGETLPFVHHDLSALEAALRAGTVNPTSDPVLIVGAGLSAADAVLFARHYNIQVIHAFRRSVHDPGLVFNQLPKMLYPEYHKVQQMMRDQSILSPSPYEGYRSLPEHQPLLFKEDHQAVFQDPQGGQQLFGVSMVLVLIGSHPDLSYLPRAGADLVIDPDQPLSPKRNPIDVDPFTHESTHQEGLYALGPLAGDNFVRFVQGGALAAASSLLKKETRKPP
# Some of the results follow. Small differences around the control level are noise.
# Compound: CN[C@@H]1C[C@H]2O[C@@](C)([C@@H]1OC)n1c3ccccc3c3c4c(c5c6ccccc6n2c5c31)C(=O)NC4 [staurosporine]
# Experiment: log2 fold change of tryptic peptide abundance, ligand vs vehicle (limited proteolysis) (log2 ratio); higher = more trypsin-susceptible (destabilized)
# Details: ligand concentration: 20 uM; sample: mouse liver crude lysate; replicate design: treated separately
row,Target,log2 fold change
1,"UniProt Q8VD66 (peptide sequence: TLHTFDLLGFGR, peptide start residue: 96)",-0.378
2,"UniProt Q8R317 (peptide sequence: QLIMANPQMQQLIQR, peptide start residue: 198)",0.462
3,"UniProt Q8VD58 (peptide sequence: LFESSEHINDTSNLK, peptide start residue: 292)",-0.341
4,"UniProt Q8VCG9 (peptide sequence: TCTYEGCR, peptide start residue: 100)",0.0522
5,"UniProt Q8VE95 (peptide sequence: TREYFYYVDHQGQLFLDDSK, peptide start residue: 42)",0.519
6,"UniProt Q8VC10 (peptide sequence: FVQGGALAAASSLLKK, peptide start residue: 457)",-0.354
